The results in this text go back to PMC10687032, “Phosphorylation of USP27X by GSK3β maintains the stability and oncogenic functions of CBX2” (Cell Death & Disease, 2023).

The chains behind the UniProt entries cited, without tags or fusion partners.
UniProt Q14781: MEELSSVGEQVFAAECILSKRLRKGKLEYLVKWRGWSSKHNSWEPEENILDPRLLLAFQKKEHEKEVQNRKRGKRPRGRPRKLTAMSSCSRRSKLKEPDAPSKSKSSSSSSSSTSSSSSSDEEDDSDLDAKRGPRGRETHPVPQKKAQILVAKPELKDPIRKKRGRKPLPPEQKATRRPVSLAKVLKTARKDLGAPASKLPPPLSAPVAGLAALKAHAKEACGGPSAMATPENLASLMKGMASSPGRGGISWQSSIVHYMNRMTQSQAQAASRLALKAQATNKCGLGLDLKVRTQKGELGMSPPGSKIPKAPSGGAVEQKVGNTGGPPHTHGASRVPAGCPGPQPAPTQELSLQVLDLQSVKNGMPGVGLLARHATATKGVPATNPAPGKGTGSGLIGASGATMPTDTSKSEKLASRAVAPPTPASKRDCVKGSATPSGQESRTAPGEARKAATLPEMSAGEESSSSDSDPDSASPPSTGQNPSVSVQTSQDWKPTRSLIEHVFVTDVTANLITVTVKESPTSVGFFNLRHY

No constants are given. Whether binding was seen depends on the method and setting. Binding seen in cells or lysates may run through a third protein. Here binding means that the protein was enriched with, or labelled near, the bait; the list need not be complete.

For this experiment, the target named is T1, USP27X stably expressed in BT549 cells (human) (UniProt A6NNY8).
T1 sequence: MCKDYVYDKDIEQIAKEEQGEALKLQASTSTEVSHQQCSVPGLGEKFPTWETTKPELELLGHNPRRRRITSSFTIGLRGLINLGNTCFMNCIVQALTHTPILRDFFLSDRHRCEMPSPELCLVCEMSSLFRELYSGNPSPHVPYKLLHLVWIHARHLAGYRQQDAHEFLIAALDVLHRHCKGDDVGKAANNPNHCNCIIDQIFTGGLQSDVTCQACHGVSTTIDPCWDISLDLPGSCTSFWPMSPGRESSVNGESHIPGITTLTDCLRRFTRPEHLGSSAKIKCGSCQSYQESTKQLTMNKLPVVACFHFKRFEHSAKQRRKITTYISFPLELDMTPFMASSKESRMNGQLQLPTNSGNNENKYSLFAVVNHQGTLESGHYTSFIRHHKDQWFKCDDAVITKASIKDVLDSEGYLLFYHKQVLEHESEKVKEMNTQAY
Description: affinity purification with mass spectrometry; immunoprecipitates from BT549 cells stably expressing USP27X, gel bands digested with trypsin and analysed by mass spectrometry.

For the substance “endogenous CBX2 (from UniProt Q14781 1-532)”, the binding entry is listed as “binds”.
